# Screening data, single-dose tests

Data taken from ChEMBL document CHEMBL3988442, “University of Dundee, Small-Polar-MMV Screening Library” (2021).

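Whole-cell growth test on Mycobacterium tuberculosis, read after 3 days in glucose-containing 7H9 medium; the read-out is not stated. Tested at 500 µM. Direction is inferred from retests: higher values go with more growth inhibition. Of about 18,000 compounds tested this way, about 1,400 (7.9%) reached 50% or more in at least one test.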

Results are given as percent effect. The controls that fix the scale are not given in the record; negative values are as filed. Compounds were drawn at random from those tested, without regard to their results.

| # | Compound | percent effect |
|---|---|---|
| 1 | `CC(CO)NC(=O)NCc1ccnc(N2CCCC2)c1` (stereo not drawn) | 4.766 |
| 2 | `N#CC1(NC(=O)CCc2ccc(Cl)s2)CCOCC1` | 69.65 |
| 3 | `CC(C)N(C)C(=O)c1nccn1C` | -5.27 |
| 4 | `Cc1ccoc1C(=O)N(C)Cc1nc(C(C)C)no1` | 63.43 |
| 5 | `N#Cc1cccc(S(=O)(=O)NCCc2ccccn2)c1` | 30.28 |
| 6 | `Cc1cccc(NC(=O)C2CC(=O)N(C(C)(C)C)C2)n1` (stereo not drawn) | 26.23 |
| 7 | `O=C1CCc2ccccc2N1Cc1ncccn1` | 9.88 |
| 8 | `Cc1csc(C(C)NC(=O)NCCCO)n1` (stereo not drawn) | -14.17 |
| 9 | `Cn1nccc1NC(=O)N1CCCN(CC(F)F)CC1` | -2.495 |
| 10 | `O=c1[nH]c(-c2ccccn2)nc2c1CCC2` | -3.905 |
| 11 | `CNCC1CCCN1C(=O)c1cccc(C)c1F` (stereo not drawn) | 11.04 |
| 12 | `CCc1nc(CNC(=O)NC2CCCN(C)C2)cs1` (stereo not drawn) | 4.154 |
| 13 | `NC(=O)C(c1ccc(Br)cc1F)N1CC[S+]([O-])CC1` (stereo not drawn) | -5.975 |
| 14 | `N#Cc1cncc(S(N)(=O)=O)c1` | 9.746 |
| 15 | `c1ccc(CN2CCN(CCC3OCCO3)CC2)nc1` | -0.7494 |
| 16 | `Cc1ccc(NC(=O)C(C)N2CCC(O)CC2)cc1` (stereo not drawn) | 16.61 |
| 17 | `CCS(=O)(=O)NCCNS(=O)(=O)c1ccc(C)cc1Cl` | 51.52 |
| 18 | `N#CCCNC(=O)CSc1ccccc1F` | 18.07 |
| 19 | `CCn1cc(S(=O)(=O)N[C@@H]2C[C@@H]3OCC[C@@H]32)cn1` | 3.612 |
| 20 | `CC1COCCN1CCNS(C)(=O)=O` (stereo not drawn) | -10.7 |
| 21 | `CCCn1cc(C(=O)N2CCN(CCO)CC2)c(C)n1` | 14.22 |
| 22 | `O=C(CN1CCC=C(F)C1)Nc1cccc(F)c1` | 64.08 |
| 23 | `Cn1cc(CN2C(=O)c3ccccc3CS2(=O)=O)cn1` | 26.84 |
| 24 | `CC(C)(C)c1noc(CO)n1` | -6.559 |
| 25 | `NC1CCN(S(=O)(=O)c2ccccc2)CC1` | -9.81 |
| 26 | `CCCNC(=O)C(C)N` (stereo not drawn) | 6.514 |
| 27 | `NCc1ccc(C(N)=O)cc1` | 5.875 |
| 28 | `COCCN1CCN(CCc2ccccn2)CC1` | 7 |
| 29 | `CN(C)CCCOc1cnccc1CN` | -2.365 |
| 30 | `CC(C(=O)N1CCCC1)N1CCN(c2nc[nH]n2)CC1` (stereo not drawn) | -4.292 |
| 31 | `Cc1cc(S(=O)(=O)N(C)C)ccc1OCC(N)=O` | 5.385 |
| 32 | `OCC1CNc2c(F)cccc2C1` (stereo not drawn) | 13.16 |
| 33 | `Cc1nccc(N2CCN(C(=O)C3CC=CC3)CC2)n1` | 28.32 |
| 34 | `COc1ccc(CN(C)[C@@H]2CCCC[C@@H]2O)cn1` | 5.958 |
| 35 | `Cn1cnnc1CCNC(=O)Cc1ccsc1` | 1.056 |
| 36 | `CCC[C@H]1CN(S(=O)(=O)Cc2ccc(F)cc2)C[C@@H]1N` | 51.29 |
| 37 | `Nc1nnc(SCc2ccccc2F)s1` | 61.69 |
| 38 | `COc1cccc(CN(CCN(C)C)S(C)(=O)=O)c1` | 12.97 |
| 39 | `Cc1ccc(C(C)NC(=O)CN2CCNC(=O)C2)cn1` (stereo not drawn) | -11.75 |
| 40 | `CN1CCCN(C(=O)Nc2ccc(Cl)cc2)CC1` | 18.56 |
| 41 | `O=C(CSc1cnn[nH]1)Nc1ccncc1` | 30.91 |
| 42 | `COc1cccc(NC(=O)CN(C)C(=O)C2CCC2)c1` | 37.73 |
| 43 | `CN(CC(=O)Nc1ccc(Br)cn1)C1CCOC1=O` (stereo not drawn) | 20.76 |
| 44 | `CCc1cncc(C)n1` | 5.673 |
| 45 | `Cc1cccnc1NC(=O)CCN` | 8.253 |
| 46 | `C1CN(C2CCN(c3nnc(C4CC4)o3)CC2)CCS1` | 46.98 |
| 47 | `CCSCC(=O)N(C)Cc1nc(C(C)C)no1` | 16.75 |
| 48 | `COc1cc(S(=O)(=O)n2cccn2)c(OC)cc1Br` | -8.938 |
| 49 | `CC1CCCN(C(=O)CN2CCCCC2=O)C1` (stereo not drawn) | 7.403 |
| 50 | `CS(=O)(=O)CC1(CNc2ncc(Br)cn2)CC1` | 15.33 |
| 51 | `CC(C)Oc1ccc(C(=O)NCCNC(C)(C)C)cn1` | 11.56 |
| 52 | `COCC1CCN(C(=O)c2cc(C3CC3)on2)CC1` | 59.73 |
| 53 | `CN(C)S(=O)(=O)c1cccc(S(=O)(=O)N(C)C)c1` | 23.11 |
| 54 | `CCOC(=O)N1CCC(N2CCCCC(N)C2)CC1` (stereo not drawn) | 14.43 |
| 55 | `COCCNC(=O)Nc1cc(Cl)ccc1OC` | 46.44 |
| 56 | `Nc1ccc(CN2CCN(CC(F)(F)F)CC2)cn1` | 5.734 |
| 57 | `c1ccc2[nH]c(N3CCNCC3)nc2c1` | 13.22 |

Some entries from above, unchanged:

- Cn1nccc1NC(=O)N1CCCN(CC(F)F)CC1 : -2.495%
- CN(CC(=O)Nc1ccc(Br)cn1)C1CCOC1=O (stereo not drawn) : 20.76%
- NC1CCN(S(=O)(=O)c2ccccc2)CC1 : -9.81%
- CN(C)CCCOc1cnccc1CN : -2.365%
- CCSCC(=O)N(C)Cc1nc(C(C)C)no1 : 16.75%